Numbering of substitutions follows the chain as printed. For some assays here: No signal at the amounts used counts as a negative. For some assays here: A weaker result is weaker than the reference pair of the same experiment. For some assays here: The exact form of at least one protein or probe is not confirmed. For some assays here: At least one verdict was read from the data and is not stated in words by the source. For some assays here: Where a protein sequence is shown, tags need not be part of it.
Key:
[1] = molecular target: BmPSI I116G (Bombyx mori) (UniProt A8R081); assay: EMSA; conditions: RNA dissolved in protein purification buffer, 20 mM Tris, 20 mM NaCl (pH not given), recombinant protein, residues 1-703, protein details: N-terminal His6-MBP-TEV, label: 5' and 3' biotin
[2] = molecular target: BmPSI L127G (Bombyx mori) (UniProt A8R081); assay: EMSA; conditions: RNA dissolved in protein purification buffer, 20 mM Tris, 20 mM NaCl (pH not given), recombinant protein, residues 1-703, protein details: N-terminal His6-MBP-TEV, label: 5' and 3' biotin
[3] = molecular target: BmPSI mut IGGI I117A,G118A,G121A,I124A (Bombyx mori) (UniProt A8R081); assay: EMSA; conditions: RNA dissolved in protein purification buffer, 20 mM Tris, 20 mM NaCl (pH not given), recombinant protein, residues 1-703, protein details: N-terminal His6-MBP-TEV, label: 5' and 3' biotin
[4] = molecular target: MBP (UniProt P0AEX9); assay: EMSA; conditions: RNA dissolved in protein purification buffer, 20 mM Tris, 20 mM NaCl (pH not given), recombinant protein, protein details: His6-MBP from empty vector, label: 5' and 3' biotin
[5] = molecular target: MBP-BmPSI ΔKH_1-1 (Bombyx mori) (UniProt A8R081); assay: EMSA; conditions: RNA dissolved in protein purification buffer, 20 mM Tris, 20 mM NaCl (pH not given), recombinant protein, residues 1-703, protein details: N-terminal His6-MBP-TEV, label: 5' and 3' biotin
[6] = molecular target: MBP-BmPSI ΔKH_1-2 (Bombyx mori) (UniProt A8R081); assay: EMSA; conditions: RNA dissolved in protein purification buffer, 20 mM Tris, 20 mM NaCl (pH not given), recombinant protein, residues 1-703, protein details: N-terminal His6-MBP-TEV, label: 5' and 3' biotin
[7] = molecular target: MBP-BmPSI ΔKH_1-3 (Bombyx mori) (UniProt A8R081); assay: EMSA; conditions: RNA dissolved in protein purification buffer, 20 mM Tris, 20 mM NaCl (pH not given), recombinant protein, residues 1-703, protein details: N-terminal His6-MBP-TEV, label: 5' and 3' biotin
[8] = molecular target: MBP-BmPSI ΔKH_1-4 (Bombyx mori) (UniProt A8R081); assay: EMSA; conditions: RNA dissolved in protein purification buffer, 20 mM Tris, 20 mM NaCl (pH not given), recombinant protein, residues 1-703, protein details: N-terminal His6-MBP-TEV, label: 5' and 3' biotin
[9] = tested on: MBP-SlPSI (Spodoptera litura); assay: EMSA; conditions: protein gradient, RNA dissolved in protein purification buffer, 20 mM Tris, 20 mM NaCl (pH not given), recombinant protein, protein details: N-terminal His6-MBP-TEV, label: 5' and 3' biotin
[10] = molecular target: T1, SlPSI I116G (Spodoptera litura) (UniProt A0A9J7DW37); assay: EMSA; conditions: RNA dissolved in protein purification buffer, 20 mM Tris, 20 mM NaCl (pH not given), recombinant protein, protein details: N-terminal His6-MBP-TEV, label: 5' and 3' biotin
T1 sequence (looked up, limits assumed): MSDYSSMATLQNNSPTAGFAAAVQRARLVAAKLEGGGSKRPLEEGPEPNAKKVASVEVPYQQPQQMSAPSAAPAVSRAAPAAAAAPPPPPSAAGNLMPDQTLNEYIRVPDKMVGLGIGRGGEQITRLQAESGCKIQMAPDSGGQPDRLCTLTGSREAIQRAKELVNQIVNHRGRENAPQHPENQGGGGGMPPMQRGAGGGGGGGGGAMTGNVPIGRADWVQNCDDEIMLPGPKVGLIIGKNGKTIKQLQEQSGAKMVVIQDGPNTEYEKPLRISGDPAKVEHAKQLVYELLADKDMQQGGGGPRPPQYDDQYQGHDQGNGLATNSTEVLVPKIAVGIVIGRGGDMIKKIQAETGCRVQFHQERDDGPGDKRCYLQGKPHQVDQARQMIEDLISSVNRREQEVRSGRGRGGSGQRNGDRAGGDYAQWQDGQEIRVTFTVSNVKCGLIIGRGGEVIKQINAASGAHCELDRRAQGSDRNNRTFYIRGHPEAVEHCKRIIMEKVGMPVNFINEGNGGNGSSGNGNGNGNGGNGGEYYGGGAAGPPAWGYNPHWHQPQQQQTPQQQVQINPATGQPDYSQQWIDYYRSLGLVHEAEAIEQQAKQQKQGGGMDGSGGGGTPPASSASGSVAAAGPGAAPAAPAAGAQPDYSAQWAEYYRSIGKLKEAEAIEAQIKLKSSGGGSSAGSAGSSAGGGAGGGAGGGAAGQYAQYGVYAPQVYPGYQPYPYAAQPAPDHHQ

[11] = molecular target: T2, SlPSI mut IGGI I117A,G118A,G121A,I124A (Spodoptera litura) (UniProt A0A9J7DW37); assay: EMSA; conditions: abstract says binding lost, RNA dissolved in protein purification buffer, 20 mM Tris, 20 mM NaCl (pH not given), recombinant protein, protein details: N-terminal His6-MBP-TEV, label: 5' and 3' biotin
T2 sequence (looked up, limits assumed): T1 sequence (looked up, limits assumed) with G116I, I117A, G118A, G121A, I124A

[12] = molecular target: BmPSI I116G (Bombyx mori) (UniProt A8R081); assay: ITC; conditions: 25 C; RNA dissolved in protein purification buffer, 20 mM Tris, 20 mM NaCl (pH not given); ITC at 25 C; recombinant protein; residues 1-703; protein details: N-terminal His6-MBP-TEV
[13] = molecular target: BmPSI L127G (Bombyx mori) (UniProt A8R081); assay: ITC; conditions: 25 C; RNA dissolved in protein purification buffer, 20 mM Tris, 20 mM NaCl (pH not given); ITC at 25 C; recombinant protein; residues 1-703; protein details: N-terminal His6-MBP-TEV
[14] = molecular target: BmPSI mut IGGI I117A,G118A,G121A,I124A (Bombyx mori) (UniProt A8R081); assay: ITC; conditions: 25 C; RNA dissolved in protein purification buffer, 20 mM Tris, 20 mM NaCl (pH not given); ITC at 25 C; recombinant protein; residues 1-703; protein details: N-terminal His6-MBP-TEV
[15] = molecular target: MBP-BmPSI ΔKH_1-3 (Bombyx mori) (UniProt A8R081); assay: competition with a labelled probe; conditions: unlabeled CE1 against biotin-CE1; RNA dissolved in protein purification buffer, 20 mM Tris, 20 mM NaCl (pH not given); EMSA buffer not given; recombinant protein; residues 1-703; protein details: N-terminal His6-MBP-TEV
[16] = molecular target: MBP-BmPSI ΔKH_1-4 (Bombyx mori) (UniProt A8R081); assay: competition with a labelled probe; conditions: unlabeled CE1 against biotin-CE1; RNA dissolved in protein purification buffer, 20 mM Tris, 20 mM NaCl (pH not given); EMSA buffer not given; recombinant protein; residues 1-703; protein details: N-terminal His6-MBP-TEV
[17] = tested on: MBP-SlPSI (Spodoptera litura); assay: competition with a labelled probe; conditions: unlabeled CE1 against biotin-CE1; RNA dissolved in protein purification buffer, 20 mM Tris, 20 mM NaCl (pH not given); EMSA buffer not given; recombinant protein; protein details: N-terminal His6-MBP-TEV

| Sequence | binding result [1] | binding result [2] | binding result [3] | binding result [4] | binding result [5] | binding result [6] | binding result [7] | binding result [8] | binding result [9] | binding result [10] | binding result [11] | binding result [12] | binding result [13] | binding result [14] | binding result [15] | binding result [16] | binding result [17] |
| --- | --- | --- | --- | --- | --- | --- | --- | --- | --- | --- | --- | --- | --- | --- | --- | --- | --- |
| UUAAUAAUAUAAGUGGUGUA [CE1 RNA probe, biotin] | binds more weakly | binds more weakly | binds more weakly | no binding | no binding | no binding | binds more weakly | binds more weakly | binds | binds more weakly | binds more weakly |  |  |  |  |  |  |
| UUAAUAAUAUAAGUGGUGUA [CE1 RNA, unlabeled] |  |  |  |  |  |  |  |  |  |  |  | binds more weakly | binds more weakly | binds more weakly | binds | binds | binds |

From article PMC6539025, “P-element Somatic Inhibitor Protein Binding a Target Sequence in dsx Pre-mRNA Conserved in Bombyx mori and Spodoptera litura”
